Measurements reported in PubChem BioAssay AID1508588 (Peter MacCallum Cancer Centre, 2020).

- Assay: 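Knock-downs boosting vemurafenib effects on melanoma cell growth or lactate release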 (primary screen)
- System: human WM266.4 melanoma cells (BRAF V600 mutant)
- Knock-down reagent: siRNA pool against human genes, 40 nM
- Duration: 96 h from transfection to read-out
- Conditions: vemurafenib 300 nM (about IC25), added 48 h after transfection, for 48 h; comparison arm got DMSO vehicle only
- Measured: 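Cell gain (DAPI nuclei at end minus before drug, mean of two replicates) and medium lactate by absorbance per cell, both as ratio to non-targeting siRNA, also grouped into fold-change classes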
- Scale: cell gain with vemurafenib: higher = more cell gain than with non-targeting siRNA; lactate per cell with vemurafenib: higher = more lactate made per cell
- Rule for the call: 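Enhancement is called by pairing each knock-down's vehicle-arm and drug-arm fold-change classes for viability or glycolysis; which class combinations qualify is not given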
- Meaning of the calls: active = enhances vemurafenib effect; inactive = no enhancement seen
In all, the deposit lists about 18,000 reagents; below is a random part of them. 790 of all reagents (4.4%) were called active. 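Calls rest on a combination of fold-change classes in drug and vehicle arms, not all shown here.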

gene symbol	PubChem SID	cell gain with vemurafenib	lactate per cell with vemurafenib	activity call
ARF1	SID152150873	0.72	0.52	inactive
POLR3F	SID134323044	0.09	1	inactive
DOCK7	SID152149470	0.47	0.66	inactive
RIPOR3	SID135622919	1.17	0.76	inactive
GHDC	SID134315087	0.45	1.16	inactive
MRPS18A	SID134312131	0.72	0.86	inactive
GTF2H4	SID135624785	0.43	1.37	inactive
GADD45B	SID135620751	1.38	0.72	inactive
GLA	SID152149907	0.39	1.23	inactive
ZNF763	SID152152131	0.29	0.82	inactive
CMSS1	SID135622833	0.66	0.7	inactive
IGFBP3	SID152150537	0.27	1.7	inactive
TCEAL9	SID152147758	1.08	0.81	inactive
SLC7A5	SID135620916	0.63	0.94	inactive
ZBED8L	SID152151355	0.51	0.56	inactive
ELOVL7	SID152154601	0.66	0.84	inactive
TNIK	SID152153870	0.51	1.28	inactive
ANAPC4	SID134317858	0.85	0.4	inactive
ZDHHC22	SID152150743	0.56	1.37	inactive
OR2B3	SID134329883	0.45	0.98	inactive
RNASE12	SID135625378	0.72	0.96	inactive
OR51I1	SID152148811	0.13	1.19	inactive
CDCA3	SID134320156	0.73	1.5	inactive
ZMYND19	SID135624198	0.91	1	inactive
ELAPOR1	SID152153312	0.83	0.42	inactive
ZP1	SID135625074	1.22	0.56	inactive
ALKAL2	SID152153410	0.67	0.5	inactive
OR52N4	SID152150209	0.67	1.01	inactive
GSTA2	SID152156687	0.86	0.88	inactive
SIRPD	SID152147393	0.73	0.99	inactive
SMOX	SID152148582	0.62	0.68	inactive
TPD52L1	SID135623774	0.31	0.88	inactive
LNPEP	SID152151687	0.71	0.82	inactive
TWF2	SID56478547	0.79	0.74	inactive
OR8B4	SID152154564	0.68	0.9	inactive
OR11A1	SID134313666	1.03	0.36	inactive
BCAR3	SID152152326	0.36	0.04	active
C9orf50	SID135625090	1.14	0.9	inactive
ATP6V1C2	SID152150742	0.33	0.41	inactive
TNRC6C	SID134323190	0.17	3	inactive
GDPGP1	SID152147872	0.92	0.8	inactive
ACOT4	SID135621690	0.44	0.8	inactive
COQ6	SID135621867	1.03	0.4	inactive
ACER1	SID134314873	-0.11	3.24	inactive
ZNF826P	SID135625559	0.25	1.35	inactive
MUTYH	SID135622408	0.99	1.25	inactive
SPMIP8	SID152148024	0.82	0.44	inactive
BTC	SID135622154	0.4	1	inactive
PGD	SID134313248	0.39	-0.06	inactive
ZC3H12A	SID152155166	0.65	0.46	active
ST6GALNAC6	SID134320638	1.24	0.67	inactive
SENP2	SID152148189	-0.05	1.31	inactive
BIRC6	SID152149918	0.71	0.7	inactive
DNAI3	SID135623222	0.68	0.93	inactive
DDX11	SID135622208	0.64	0.14	inactive
DUSP13B	SID152148104	0.69	0.44	inactive
FIGN	SID152151499	0.66	1.27	inactive
